# Assay results from patent publication US20240391889A1, “ANTIMICROBIAL COMPOUNDS AND THE METHODS OF USE” (priority 2021, published 2024).
# Numbered stars: 1 amine (or outer) side, 2 acyl side, 3 side chain; on linkers, the order of the positions; unused ones are H or OH. Square brackets hold non-standard residues; d marks the D form. Peptide text beside a SMILES is read from it. N(tridecyl)Gly = CCCCCCCCCCCCCNCC(=O)O; X1 = CC(c1ccccc1)N(CC(=O)[*:2])[*:1]; NFurfurylGly = O=C(O)CNCc1ccco1; Gly(N(CH2)3NH2) = NCCCNCC(=O)O; Nphe = O=C(O)CNCc1ccccc1; NPrGly = CCCNCC(=O)O; Nlys = NCCCCNCC(=O)O
# Test system: HepG2 liver cells
# Type: cell-based
# Description: The mammalian cell lines that were tested (HepG2, 3T3, and HaCat) were incubated with RMG9-11 for 72 hours and cell viability was determined via mitochondrial activity using an MTT reduction assay where viable cells reduce MTT to formazan. Toxicity is reported as the concentration of the peptoid that results in a 50% reduction in viable cells, termed toxicity dose 50% or TD50. […] SR is defined as the TD50 divided by MIC and provides a measure of the therapeutic window for a compound. Typically for most lead compounds that would continue through development and optimization, a SR of 10 is preferred while an SR of 100 is more desirable for a compound moving into preclinical animal model evaluation.
# Hepatocellular carcinoma (HepG2), mouse fibroblast (3T3), and human keratinocyte (HaCat) cells were cultured in Dulbeco modified eagle media (DMEM) containing 10% fetal bovine serum (FBS) and 1% penicillin, streptomycin, and glutamine (PSG) at 37° C. and 5% CO2. Cells were collected and adjusted to […] to 4×10^5 cells/mL in phenol-red free DMEM and plated (100 μL) 96 well plates. 2-fold serial dilutions of 10× peptoid (11.1 μL) were added to each well in triplicate. Water (vehicle) was used as a negative control. Plates were incubated at 37° C. in 5% CO2 for 72 hours. […] Plates were read on a SPECTRAMAX M5 plate reader (Abs. 570 nm). […]
compound,measurement,setting,value
CCCCCCCCCCCCCNCC(=O)N(CCC)CC(=O)N(CC(=O)N(CCCCN)CC(=O)N(CC(=O)N(CC(=O)N(CCCN)CC(N)=O)Cc1ccccc1)Cc1ccco1)C(C)c1ccccc1 (centres unmarked) [RMG9-11] (H-[N(tridecyl)Gly][NPrGly][X1][Nlys][NFurfurylGly][Nphe][Gly(N(CH2)3NH2)]-NH2),C. neoformans SR (HepG2 TD50/MIC),HepG2 TD50 divided by C. neoformans MIC,36
same,C. albicans SR (HepG2 TD50/MIC),HepG2 TD50 divided by MIC against planktonic C. albicans,18
